PubChem BioAssay AID504793 | Drosophila RNAi Screening Center | 2011
The screen tested about 23,000 reagents; this is an unselected part of those that have a named target and a result. Over the whole deposit, 62 (0.27%) are marked active. 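Calls come from follow-up tests whose scores are not deposited, so confirmed genes may have low counts here; counts are not normalised per plate.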 The raw values are shown without normalisation. A plus sign joins genes that one reagent is predicted to hit.

Assay: 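Knock-downs allowing continued mitosis even though DNA is damaged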 (primary screen)
Cell system: Drosophila S2R+ cells
Reagent: long dsRNA against Drosophila genes, about 0.25 µg dsRNA per well
Time to read-out: 4 days of dsRNA, then 4 hours of drug before read-out
Conditions: doxorubicin 0.5 µM for 4 hours to cause double-strand breaks, in cells also given a low, harmless dose of dsRNA against nbs to sensitise the assay
Detection: 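Per-well count of mitotic cells stained for phospho-histone H3 after doxorubicin exposure, used as mitotic index; counts are raw and not normalised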
Scale: mitotic cells: higher = more cells in mitosis, weaker G2 arrest
Rule for the call: 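a call needs confirmation in secondary tests, with other dsRNAs and a check of mitotic timing without damage, not just a high primary count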
Meaning of the calls: active = confirmed in follow-up tests; inactive = not confirmed

Target gene | DRSC id | mitotic cells, replicate 1 | Outcome
noi (noisette) | DRSC12383 | 5 | inactive
noi (noisette) | DRSC26152 | 3 | inactive
CG31076 | DRSC16017 | 10 | inactive
Nup50 (Nucleoporin 50kD) | DRSC06827 | 2 | inactive
Nup50 (Nucleoporin 50kD) | DRSC26470 | 6 | inactive
Sod1 (Superoxide dismutase 1) | DRSC11286 | 9 | inactive
lbl (ladybird late) | DRSC16986 | 5 | inactive
Prx1 (Peroxiredoxin 1) | DRSC10741 | 3 | inactive
Prx1 (Peroxiredoxin 1) | DRSC24401 | 2 | inactive
CG2063 | DRSC06811 | 10 | inactive
AstCC (Allatostatin double C) | DRSC02404 | 5 | inactive
CG32079 | DRSC22636 | 7 | inactive
CG12056 | DRSC17796 | 13 | inactive
Rrp4 | DRSC04434 | 5 | inactive
Rrp4 | DRSC29543 | 9 | inactive
CG13004 | DRSC19523 | 10 | inactive
CG10298 | DRSC12522 | 3 | inactive
CG10298 | DRSC25489 | 12 | inactive
Rsod (Related to Sod) | DRSC15424 | 13 | inactive
Fatp2 (Fatty acid transport protein 2) | DRSC03971 | 7 | inactive
Fatp2 (Fatty acid transport protein 2) | DRSC04178 | 5 | inactive
Fatp2 (Fatty acid transport protein 2) | DRSC04330 | 8 | inactive
Rchy1 (Ring finger and CHY zinc finger domain containing 1) | DRSC23118 | 13 | inactive
Rchy1 (Ring finger and CHY zinc finger domain containing 1) | DRSC26775 | 5 | inactive
Rhp (Rhophilin) | DRSC20279 | 14 | inactive
gwl (greatwall) | DRSC16305 | 16 | inactive
CG15210 | DRSC19656 | 5 | inactive
CG15210 | DRSC27768 | 1 | inactive
CG7639 | DRSC07026 | 1 | inactive
SdhC (Succinate dehydrogenase, subunit C) | DRSC16088 | 13 | inactive
CG5849 | DRSC15893 | 11 | inactive
CG13458 | DRSC10005 | 2 | inactive
CG13458 | DRSC24392 | 5 | inactive
CG1090 | DRSC12150 | 8 | inactive
CG1090 | DRSC21604 | 19 | inactive
CG15034 | DRSC17966 | 16 | inactive
spict (spichthyin) | DRSC02157 | 6 | inactive
spict (spichthyin) | DRSC28072 | 6 | inactive
RpL22-like (Ribosomal protein L22-like) | DRSC04582 | 10 | inactive
CG9067 | DRSC07328 | 8 | inactive
CG11127 | DRSC06043 | 7 | inactive
CG13544 | DRSC04186 | 4 | inactive
CG13544 | DRSC30038 | 8 | inactive
Rfx | DRSC16820 | 8 | inactive
DMAP1 (DNA methyltransferase 1 associated protein 1) | DRSC06044 | 5 | inactive
DMAP1 (DNA methyltransferase 1 associated protein 1) | DRSC26559 | 7 | inactive
TH1 | DRSC20289 | 6 | inactive
CG12209 | DRSC06119 | 6 | inactive
egl (egalitarian) | DRSC23380 | 7 | inactive
CG33557 | DRSC17854 | 10 | inactive
Wdfy2 (WD repeat and FYVE domain containing 2) | DRSC02822 | 9 | inactive
Wdfy2 (WD repeat and FYVE domain containing 2) | DRSC29755 | 9 | inactive
Gbeta13F (G protein beta subunit 13F) | DRSC20247 | 5 | inactive

Quoted from above, 13 entries:
Target gene | DRSC id | mitotic cells, replicate 1 | Outcome
CG13458 | DRSC10005 | 2 | inactive
CG13458 | DRSC24392 | 5 | inactive
CG1090 | DRSC12150 | 8 | inactive
CG1090 | DRSC21604 | 19 | inactive
CG15034 | DRSC17966 | 16 | inactive
spict (spichthyin) | DRSC02157 | 6 | inactive
spict (spichthyin) | DRSC28072 | 6 | inactive
RpL22-like (Ribosomal protein L22-like) | DRSC04582 | 10 | inactive
CG9067 | DRSC07328 | 8 | inactive
CG11127 | DRSC06043 | 7 | inactive
CG13544 | DRSC04186 | 4 | inactive
CG13544 | DRSC30038 | 8 | inactive
Rfx | DRSC16820 | 8 | inactive

Further results follow:
Target gene | DRSC id | mitotic cells, replicate 1 | Outcome
AstC-R1 (Allatostatin C receptor 1) | DRSC10799 | 2 | inactive
AstC-R1 (Allatostatin C receptor 1) | DRSC29648 | – | inactive
ItgaPS4 (Integrin alphaPS4 subunit) | DRSC06630 | 4 | inactive
CG31098 | DRSC14259 | 12 | inactive
CG11370 | DRSC11653 | 10 | inactive
CG11370 | DRSC28361 | 5 | inactive
Vha14-2 (Vacuolar H[+] ATPase 14kD subunit 2) | DRSC12145 | 2 | inactive
Sgs5 (Salivary gland secretion 5) | DRSC16862 | 11 | inactive
Ac3 (Adenylate cyclase 3) | DRSC03692 | 2 | inactive
CG11600 | DRSC14332 | 4 | inactive
CG11600 | DRSC24238 | 13 | inactive
Gr39a (Gustatory receptor 39a) | DRSC01841 | 5 | inactive
Gr39a (Gustatory receptor 39a) | DRSC01842 | 8 | inactive
Gr39a (Gustatory receptor 39a) | DRSC27181 | 3 | inactive
RpL11 (Ribosomal protein L11) | DRSC07537 | 13 | inactive
RpL11 (Ribosomal protein L11) | DRSC26217 | 4 | inactive
loopin-1 | DRSC06888 | 7 | inactive
loopin-1 | DRSC24892 | 6 | inactive
RpS26 (Ribosomal protein S26) | DRSC03420 | 5 | inactive
PGRP-LB (Peptidoglycan recognition protein LB) | DRSC14926 | 4 | inactive
CG11768 | DRSC23219 | 12 | inactive
CG11768 | DRSC29630 | 8 | inactive
CG15198 | DRSC19645 | 6 | inactive
Oatp58Db (Organic anion transporting polypeptide 58Db) | DRSC04364 | 5 | inactive
Oatp58Db (Organic anion transporting polypeptide 58Db) | DRSC24248 | 4 | inactive
Polr3D (RNA polymerase III subunit D) | DRSC10485 | 4 | inactive
Polr3D (RNA polymerase III subunit D) | DRSC29157 | 10 | inactive
retm (real-time) | DRSC03252 | 6 | inactive
CG32373 | DRSC08895 | 4 | inactive
mRpL19 (mitochondrial ribosomal protein L19) | DRSC16367 | 8 | inactive
mRpL19 (mitochondrial ribosomal protein L19) | DRSC21618 | 19 | inactive
mRpL19 (mitochondrial ribosomal protein L19) | DRSC26104 | 8 | inactive
hale (hale-bopp) | DRSC10882 | 6 | inactive
hale (hale-bopp) | DRSC28772 | 5 | inactive
ND-13B (NADH dehydrogenase (ubiquinone) 13 kDa B subunit) | DRSC10643 | 3 | inactive
ND-13B (NADH dehydrogenase (ubiquinone) 13 kDa B subunit) | DRSC29920 | 4 | inactive
CG42306 + Gint3 | DRSC06934 | 7 | inactive
CG42306 + Gint3 | DRSC29885 | 8 | inactive
Cdk1 (Cyclin-dependent kinase 1) | DRSC03504 | 6 | inactive
CG10600 | DRSC02074 | 5 | inactive
CG4830 | DRSC15657 | 7 | inactive
Obp56d (Odorant-binding protein 56d) | DRSC06064 | 4 | inactive
Or24a (Odorant receptor 24a) | DRSC00768 | 4 | inactive
e(y)2b (enhancer of yellow 2b) | DRSC12556 | 8 | inactive
DCTN5-p25 (Dynactin 5, p25 subunit) | DRSC03525 | 21 | inactive
DCTN5-p25 (Dynactin 5, p25 subunit) | DRSC26867 | 14 | inactive
CG30323 | DRSC07656 | 2 | inactive
CG13204 | DRSC06328 | 5 | inactive
CG13204 | DRSC27988 | 18 | inactive
Lip2 (Lipase 2) | DRSC02577 | 2 | inactive
Lip2 (Lipase 2) | DRSC02578 | 5 | inactive
Had2 (beta Hydroxy acid dehydrogenase 2) | DRSC05971 | 6 | inactive
Had2 (beta Hydroxy acid dehydrogenase 2) | DRSC26955 | 2 | inactive
Pos (Poseidon) | DRSC15415 | 9 | inactive
CG7550 | DRSC10875 | 7 | inactive
sNPF (short neuropeptide F precursor) | DRSC23403 | – | inactive
IP3K1 (Inositol 1,4,5-triphosphate kinase 1) | DRSC02734 | 7 | inactive
